We go through 4 compounds from US20220281860A1, “COMPOUNDS AND METHODS OF TREATING RNA-MEDIATED DISEASES” (Arrakis Therapeutics, Inc., priority 2016, published 2022).

Molecules are shown by their SMILES.

The data set has as its system 41CAG and 17CAG sequences. The data set can be described thus: NMR epitope mapping (STD). The class given is binding. As to conditions: both RNA constructs 41CAG and 17CAG; preliminary assignments.
`O=C(c1ccc(Cl)cc1)N1CCN(c2ccc([N+](=O)[O-])c3ncccc23)CC1` [CPNQ]: the “Epitope mapping (scaled STD effect): protons in closer proximity to RNA” value is listed as “protons of the chlorophenyl moiety are in closer proximity to RNA than the nitroquinoline”.
The value for `Cc1nn(-c2ccccc2)nc1CN` [HP-AC008001-E02] was “aromatic protons closest to the heterocycle are in closer proximity to RNA protons”.
To `OCc1cccc(-c2cccnc2)c1` [HP-AC008002-E01] belongs “protons of the pyridine ring are in closer proximity to RNA than the benzene ring”; to `CC(O)CNCc1ccc(-c2ccccc2)o1` (stereo not shown) [HP-AT005003-C03], “protons of the furan moiety are in closer proximity to RNA protons than the phenyl”.
